Test results from PubChem BioAssay AID504467 (National Center for Advancing Translational Sciences (NCATS), 2011).
Screen size: about 330,000 compounds; about 7,700 (2.3%) were called active. The shares of active, inactive and inconclusive entries below differ from those in the screen. The call rests on the fitted dose curve; in most records, active means well fitted inhibition curve with a large enough effect; inconclusive means small, poorly fitted or top-dose-only effect, or effect the other way; inactive means flat fitted curve, though single readings scatter. Potencies of inconclusive entries are doubtful fits and often do not repeat.

assay: qHTS screen for small molecules that inhibit ELG1-dependent DNA repair in human embryonic kidney (HEK293T) cells expressing luciferase-tagged ELG1; conditions: HEK293T ELG1-luciferase reporter, luminescence, 16 h, DNA damage induced by 5-fluorouridine; activity change, negative = inhibition: at 46.1 µM (top of the series); further: nearly all actives have a fitted effect of over 55% in size
Outline: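 DMSO vehicle served as the neutral condition. Each well held 2,000 cells given 5-fluorouridine plus compound; after 16 hr at 37 °C/5% CO2, ONE-Glo was added and luciferase measured 30 min later.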
On the % scale 0 is the no-effect control and ±100 the full control effect; potency means the concentration at half of the fitted maximal effect.

Row | Structure (SMILES) | Potency | activity change, negative = inhibition
1 | Cc1n[nH]c(C)c1S(=O)(=O)N1CCCC(C(=O)N2CCN(c3ccc(Cl)cc3)CC2)C1 (stereo not drawn) | inconclusive: 16.4 µM [inhibitor, single point] | –
2 | COc1cccc(/C=N/NC(=O)c2cccc([N+](=O)[O-])c2)c1OS(=O)(=O)c1ccccc1 | inconclusive: 5.17 µM [inhibitor, single point] | –
3 | CCOC(=O)N1CCN(CCC(=O)c2ccc(OC)cc2)CC1 | – | inactive: 23.2%
4 | COc1ccc(C2C=C(c3ccccc3)Nc3nnnn32)cc1 (stereo not drawn) | inconclusive: 3.55 µM [activator, partial curve] | –
5 | CCCc1nc2ccccc2c(C(=O)OCC(=O)NCc2ccc3c(c2)OCO3)c1CC | inconclusive: 25.9 µM [inhibitor, single point] | –
6 | CCc1noc(C)c1C(=O)Nc1nc(-c2ccc(Cl)cc2Cl)cs1 | inconclusive: 13 µM [inhibitor, partial curve] | –
7 | COc1ccc(-n2c(COc3cccc4cccnc34)nnc2SCC(=O)O)cc1 | – | inactive: 7.6%
8 | CCC(=O)N1CCN(c2ccccc2NC(=O)COc2ccccc2Cl)CC1 | inconclusive: 15.8 µM [inhibitor, single point] | –
9 | COc1ccc(N2Cc3ccccc3C2=NC(=O)c2cncc(Br)c2)cc1 | inconclusive: 16.4 µM [activator, partial curve] | –
10 | CCCCCCCCCCOC(=O)Cn1c(COc2ccccc2C)[n+](C)c2ccccc21 | inconclusive: 32.6 µM [inhibitor, partial curve, poor fit] | –
11 | CCc1ccc(Nc2nc(C)cc(C)n2)cc1 | inconclusive: 16.4 µM [activator, partial curve] | –
12 | N#Cc1ccc(C(=O)Nc2nnc(-c3ccccn3)o2)cc1 | inconclusive: 11.6 µM [activator, single point] | –
13 | COc1ccccc1NC(=O)CSc1nncs1 | inconclusive: 16.4 µM [activator, single point] | –
14 | Cc1sc2ncnc(N3CCC(C(=O)NNC(=O)COc4ccccc4Cl)CC3)c2c1C | inconclusive: 29.1 µM [inhibitor, single point] | –
15 | CCOc1ccc(NC(=O)C[n+]2ccccc2)cc1 | inconclusive: 25.9 µM [activator, partial curve, poor fit] | –
16 | CN(CC(=O)Nc1ccccc1Cl)C(=O)CSc1nc2ccccc2s1 | – | inactive: 14.4%
17 | O=C(C[C@H]1C(=O)N(Cc2ccccc2)C[C@@H]1Cc1ccccc1)Nc1ccccc1 | inconclusive: 4.11 µM [inhibitor, single point] | –
18 | NC(=S)NNc1ccnc2cc(Cl)ccc12 | – | inactive: -5.9%
19 | CN(c1ccccc1C(=O)N1CCc2ccccc2C1)S(C)(=O)=O | inconclusive: 32.6 µM [activator, partial curve, poor fit] | –
20 | CN(C(=O)c1cc2c(s1)-c1ccccc1S(=O)(=O)C2)c1ccccc1 | – | inactive: -24.2%
21 | Cc1cccc(-c2nc(CN3CCCC(C(=O)NC4CCCC4)C3)c(C)o2)c1 (stereo not drawn) | inconclusive: 18.4 µM [inhibitor, partial curve, poor fit] | –
22 | Cc1nn(Cc2c(Cl)cccc2Cl)c(C)c1NC(=O)/C=C/c1cnn(C)c1C | inconclusive: 29.1 µM [activator, single point] | –
23 | COc1cccc(NC(=O)CN(C)C(=O)c2cc3c(s2)CCCC3)c1 | inconclusive: 16.4 µM [activator, partial curve, poor fit] | –

Row | Structure (SMILES) | Potency | activity change, negative = inhibition
24 | O=C(COc1ccc(S(=O)(=O)NCc2ccccc2)cc1Cl)N1CCOCC1 | inconclusive: 29.1 µM [inhibitor, partial curve, poor fit] | –
25 | CNC[C@@H](Cc1ccccc1)NC[C@@H](CC1CCCCC1)NCCCc1ccccc1 | inconclusive: 25.9 µM [inhibitor, single point] | –
26 | COc1ccc(-n2cc(-c3ccccc3)c3c(=O)[nH]cnc32)cc1 | – | inactive: -23.6%
27 | O=C1NC(c2ccccc2)=C(c2nc3ccccc3s2)C(c2ccccc2)N1 (stereo not drawn) | – | inactive: -23.7%
28 | CC(=O)c1cccc(NC(=O)N2C3CCC2CC(O)(c2cccnc2)C3)c1 (stereo not drawn) | inconclusive: 29.1 µM [activator, single point] | –
29 | COCCN(C(=O)CSc1nnc(C)n1Cc1ccccc1)c1c(N)n(Cc2ccccc2)c(=O)[nH]c1=O | inconclusive: 0.73 µM [activator, partial curve, poor fit] | –
30 | Cc1nc(N=Nc2ccc(O)cc2)n[nH]1 | inconclusive: 4.11 µM [activator, full curve] | –
31 | O=C(NC1CCCCC1)N1CCCCCC1 | – | inactive: 19.9%
32 | COc1ccc(-c2cc(=O)oc3cc(OCC(C)=O)ccc23)cc1 | inconclusive: 29.1 µM [inhibitor, single point] | –
33 | O=C(Cc1ccccc1[N+](=O)[O-])NCc1ccc(Cl)cc1 | inconclusive: 23.1 µM [activator, partial curve] | –
34 | CNC(=S)N/N=C/c1c2ccccc2c(Cl)c2ccccc12 | – | inactive: 8.24%
35 | CCOc1ccc(S(=O)(=O)NCCCn2ccnc2)cc1 | – | inactive: -8.6%
36 | O=C(NC(=S)Nc1ccccc1)c1ccc(-c2ccccc2)cc1 | inconclusive: 10.3 µM [activator, partial curve] | –
37 | Cc1c(C)n(CCCN(C)C)c2ncnc(Nc3ccccc3)c12 | inconclusive: 20.6 µM [activator, partial curve] | –
38 | O=C(O)Cc1sc(Nc2cccc3ccccc23)nc1-c1ccc(Cl)cc1 | – | inactive: 13.6%
39 | Cc1cccc(CN2CCC(CNC(=O)CCNC(=O)Cn3ccc4ccccc4c3=O)CC2)c1 | inconclusive: 6.51 µM [activator, partial curve, poor fit] | –
40 | Cn1c(COc2ccccc2Br)nc2ccccc21 | inconclusive: 11.6 µM [activator, partial curve] | –
41 | CCOC(=O)c1sc2nccc(N(C)C)c2c1N=CNOCc1c(F)cccc1Cl | active: 16.4 µM | –
42 | O=C(Nc1ccc(NC(=O)c2sc3ccccc3c2Cl)cc1)c1ccco1 | inconclusive: 23.1 µM [activator, partial curve] | –
43 | COc1ccc(-c2ccc(-c3noc(C)n3)c(OC)n2)cc1 | inconclusive: 8.2 µM [activator, partial curve] | –
44 | Cc1cccc(C(=O)N/N=C/c2ccoc2)c1 | inconclusive: 0.651 µM [activator, full curve, poor fit] | –
45 | COc1ccccc1NC(=O)C1=C(C)NC(SCC(=O)Nc2ccc(C(=O)O)cc2)=C(C#N)C1c1cccs1 (stereo not drawn) | – | inactive: 11.3%
46 | O=C(Nc1ccccc1)Nc1ccc(Cl)c(S(=O)(=O)N2CCOCC2)c1 | inconclusive: 29.1 µM [inhibitor, single point] | –

Row | Structure (SMILES) | Potency | activity change, negative = inhibition
47 | Cc1cccc2sc(NC(=O)CCNS(=O)(=O)c3cccc4nonc34)nc12 | inconclusive: 18.4 µM [inhibitor, partial curve] | –
48 | Cc1cc2c(cc1S(=O)(=O)CCC(=O)Nc1cccc(C(F)(F)F)c1)OCC(=O)N2 | – | inactive: 2.36%
49 | CCOC(=O)c1c(NC(=O)CN2CCN(C(=O)c3ccco3)CC2)sc(C)c1C | – | inactive: -5.21%
50 | Fc1ccc(-c2nc3ccncc3[nH]2)cc1 | inconclusive: 20.6 µM [activator, partial curve] | –
51 | CN(C)C(CNC(=O)c1ccc(S(=O)(=O)Nc2cccc(C(F)(F)F)c2)cc1)c1ccco1 (stereo not drawn) | – | inactive: -2.33%
52 | CCCCS/C(N)=N/N=C/c1cc(C)ccc1O | inconclusive: 23.1 µM [activator, single point] | –
53 | CN(c1ccccc1)S(=O)(=O)c1cc(C(=O)c2nccn2C)ccc1Cl | inconclusive: 29.1 µM [inhibitor, single point] | –
54 | COc1ccc(CCNC(=O)COc2ccc(S(=O)(=O)N3CCOCC3)cc2C)cc1 | inconclusive: 9.2 µM [inhibitor, partial curve] | –
55 | C=CCN(CC=C)C(=O)CCc1nnc(CCc2c[nH]c3ccccc23)o1 | inconclusive: 25.9 µM [activator, single point] | –
56 | CN(C)CCCNC(=O)/C(=C\c1ccc(-c2ccc(Br)cc2)o1)NC(=O)c1ccccc1 | – | inactive: -19.9%
57 | COc1ccc(N2CCN(C(=O)CNC(=O)c3ccc4ccccc4c3)CC2)cc1 | inconclusive: 32.6 µM [activator, single point] | –
58 | C=CCSc1nnc2nc3[nH]c4c(C)cccc4c3nn12 | inconclusive: 20.6 µM [activator, single point] | –
59 | O=C(CCn1c(=O)oc2ccccc21)N1CCCCCC1 | inconclusive: 16.4 µM [activator, single point] | –
60 | CC(=O)c1ccc(OCc2cc(C(=O)N3CCN(c4ccccc4)CC3C)no2)cc1 (stereo not drawn) | inconclusive: 11.6 µM [activator, partial curve] | –
61 | CC(C)N1CCc2c(sc(NC(=O)c3ccco3)c2C(N)=O)C1 | inconclusive: 29.1 µM [inhibitor, single point] | –
62 | COC(=O)c1cc(NC(=O)c2cc(C(C)(C)C)nn2Cc2ccc(F)cc2)ccc1N1CCOCC1 | inconclusive: 18.3 µM [inhibitor, single point] | –
63 | O=C(O)CSc1cc(C(=O)c2cc(F)ccc2O)cn2c(=O)c3c(-c4ccccc4)csc3nc12 | – | inactive: -4.43%
64 | CCOC(=O)Nc1cccc(Nc2ccccc2)c1 | – | inactive: 17%
65 | COc1ccc(-n2c(CN3CCC(C)CC3)nc3ccc([N+](=O)[O-])cc3c2=O)c(OC)c1 | – | inactive: -10.1%
66 | COCCN1C(=O)/C(=C2/C(=O)N(CC(=O)Nc3ccccc3Cl)c3ccccc32)SC1=S | – | inactive: 5.85%
67 | COc1cc2c(cc1OC)CN(CC(=O)Nc1ccc(Cl)cc1Cl)CC2 | inconclusive: 14.6 µM [inhibitor, partial curve, poor fit] | –
68 | CCN(CC)c1ccc(C(=O)N/N=C/c2ccccc2OC(F)F)cc1 | inconclusive: 16.4 µM [inhibitor, single point] | –

13 entries from above, arranged by number of heavy atoms, rising.
Row | Structure (SMILES) | Potency | activity change, negative = inhibition
18 | NC(=S)NNc1ccnc2cc(Cl)ccc12 | – | inactive: -5.9%
11 | CCc1ccc(Nc2nc(C)cc(C)n2)cc1 | inconclusive: 16.4 µM [activator, partial curve] | –
52 | CCCCS/C(N)=N/N=C/c1cc(C)ccc1O | inconclusive: 23.1 µM [activator, single point] | –
59 | O=C(CCn1c(=O)oc2ccccc21)N1CCCCCC1 | inconclusive: 16.4 µM [activator, single point] | –
12 | N#Cc1ccc(C(=O)Nc2nnc(-c3ccccn3)o2)cc1 | inconclusive: 11.6 µM [activator, single point] | –
4 | COc1ccc(C2C=C(c3ccccc3)Nc3nnnn32)cc1 (stereo not drawn) | inconclusive: 3.55 µM [activator, partial curve] | –
6 | CCc1noc(C)c1C(=O)Nc1nc(-c2ccc(Cl)cc2Cl)cs1 | inconclusive: 13 µM [inhibitor, partial curve] | –
38 | O=C(O)Cc1sc(Nc2cccc3ccccc23)nc1-c1ccc(Cl)cc1 | – | inactive: 13.6%
57 | COc1ccc(N2CCN(C(=O)CNC(=O)c3ccc4ccccc4c3)CC2)cc1 | inconclusive: 32.6 µM [activator, single point] | –
25 | CNC[C@@H](Cc1ccccc1)NC[C@@H](CC1CCCCC1)NCCCc1ccccc1 | inconclusive: 25.9 µM [inhibitor, single point] | –
65 | COc1ccc(-n2c(CN3CCC(C)CC3)nc3ccc([N+](=O)[O-])cc3c2=O)c(OC)c1 | – | inactive: -10.1%
39 | Cc1cccc(CN2CCC(CNC(=O)CCNC(=O)Cn3ccc4ccccc4c3=O)CC2)c1 | inconclusive: 6.51 µM [activator, partial curve, poor fit] | –
45 | COc1ccccc1NC(=O)C1=C(C)NC(SCC(=O)Nc2ccc(C(=O)O)cc2)=C(C#N)C1c1cccs1 (stereo not drawn) | – | inactive: 11.3%
